Measurements from article PMC4919790, “Allosteric modulation of AURKA kinase activity by a small-molecule inhibitor of its protein-protein interaction with TPX2” (Scientific Reports, 2016).

Protein sequences, listed by entry. Tags and fused reporters are not part of them. Residues count along the entry.
UniProt O14965, 123-403 limits assumed: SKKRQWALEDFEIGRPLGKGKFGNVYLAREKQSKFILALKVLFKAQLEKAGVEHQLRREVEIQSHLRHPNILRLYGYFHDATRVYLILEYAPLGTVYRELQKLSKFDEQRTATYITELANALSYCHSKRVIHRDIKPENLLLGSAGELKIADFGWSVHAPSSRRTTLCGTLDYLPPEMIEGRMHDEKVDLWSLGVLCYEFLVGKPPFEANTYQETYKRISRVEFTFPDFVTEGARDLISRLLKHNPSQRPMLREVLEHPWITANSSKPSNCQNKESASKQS

Target: AURKA-TPX2 interaction (His-tagged AURKA123–403 / TAMRA-labelled TPX2 1–43) (Homo sapiens, UniProt O14965)
Assay: Fluorescence anisotropy (FA) competition assay: displacement of TAMRA-TPX2 1-43 from AURKA123-403
Settings: read-out: Ki from FA competition assay; free-concentration corrected Cheng-Prusov equations

For `Nc1ccccc1C(=O)O`, the Ki was over 500 µM.

The structures given here were assigned with low confidence; some may be wrong.
